These are yes or no findings as the source states them, for the method shown. Binding seen in cells or lysates may run through a third protein. A result given as binding can be weak or reduced; the word gives no strength.
Tests used:
[1] = molecular target: GFP-Cw9a(1-52) (S. pombe (natural isolate CBS5557)); test: co-IP; in vivo co-immunoprecipitation in S. pombe (Supplementary Fig. 1h); GFP-Trap agarose beads by the general method
[2] = molecular target: GST-tagged Cw9a(1-52) (S. pombe (natural isolate CBS5557)); test: pull-down; GST pull-down: E. coli lysate with the GST fusion mixed with S. pombe lysate with the 3×FLAG-tagged ubiquitin ligase, 4 °C, glutathione-sepharose beads; 50 mM phosphate pH 7.4, 200 mM NaCl, 10% glycerol, 0.05% NP-40; anti-FLAG blot

By UniProt entry, the sequences of proteins in these tests, tags left out.
UniProt Q92462: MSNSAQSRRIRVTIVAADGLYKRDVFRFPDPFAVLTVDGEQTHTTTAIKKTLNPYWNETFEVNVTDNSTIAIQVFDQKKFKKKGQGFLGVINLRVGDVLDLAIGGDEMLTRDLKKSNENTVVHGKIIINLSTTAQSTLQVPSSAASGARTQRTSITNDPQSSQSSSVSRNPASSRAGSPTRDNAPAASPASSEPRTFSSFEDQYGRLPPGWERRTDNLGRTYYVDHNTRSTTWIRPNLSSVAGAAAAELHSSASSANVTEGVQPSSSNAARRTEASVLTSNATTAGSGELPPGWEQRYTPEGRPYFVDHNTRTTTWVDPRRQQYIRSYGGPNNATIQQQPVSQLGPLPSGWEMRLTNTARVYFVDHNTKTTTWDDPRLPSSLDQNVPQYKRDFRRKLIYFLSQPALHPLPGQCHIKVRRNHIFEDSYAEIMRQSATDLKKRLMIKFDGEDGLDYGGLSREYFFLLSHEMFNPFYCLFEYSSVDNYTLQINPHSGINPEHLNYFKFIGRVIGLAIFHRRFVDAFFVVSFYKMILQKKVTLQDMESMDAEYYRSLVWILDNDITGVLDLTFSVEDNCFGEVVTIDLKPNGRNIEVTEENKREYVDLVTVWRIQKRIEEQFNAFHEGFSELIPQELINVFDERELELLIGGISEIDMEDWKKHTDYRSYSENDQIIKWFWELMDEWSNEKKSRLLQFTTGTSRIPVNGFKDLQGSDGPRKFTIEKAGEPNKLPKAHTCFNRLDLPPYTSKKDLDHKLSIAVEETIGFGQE

“3×FLAG-tagged Pub1 (from UniProt Q92462 1-767) (enzyme)” was tested, and the binding [1] was “binds” and the binding [2] was “binds”.
